These are yes or no findings as the source states them, for the method shown. For some assays here: In cells and extracts the contact can be indirect. Some entries that bind do so weakly or less than the wild type. Tags and fused reporters may be left off the sequences shown.

Experiment [1] deals with Soybean mosaic virus helper component-proteinase (Hc-Pro), full length, yeast two-hybrid fusion (Soybean mosaic virus (N1 strain)) (UniProt P21231). As to the kind of experiment: two-hybrid.
In experiment [2] the target is Soybean mosaic virus Hc-Pro, full length, split-YFP fusion for BiFC (Soybean mosaic virus (N1 strain)) (UniProt P21231). Kind of experiment: split reporter.

B1: Soybean mosaic virus helper component-proteinase (Hc-Pro), full length, yeast two-hybrid fusion (protein, UniProt P21231)
chain: SQNPEAQFFRGWKKVFDKMPPHVENHECTTDFTNEQCGELAAAISQSIFPVKKLSCKQCRQHIKHLSWEEYKQFLLAHMGCHGPEWETFQEIDGMRYVKRVIETSTAENASLQTSLEIVRLTQNYKSTHMLQIQDINKALMKGPSVTQSELEQASKQLLAMTQWWKNHMTLTDEDALKVFRNKRSSKALLNPSLLCDNQLDKNGNFVWGERGRHSKRFFANYFEEVVPSEGYSKYVIRKNPNGQRELAIGSLIVPLDFERARMALQGKSVTREPITMSCISRQDGNFVYPCCCVTHDDGKAFYSELRSPTKRHLVIGTSGDPKYIDLPATDADRMYIAKEGFCYLNIFLAMLVNVNEDEAKDFTKMVRDVIVPRLGKWPTMLDVATAAYMLTVFHPETRNAELPRILVDHACQTMHVIDSFGSLTVGYHVLKAGTVNQLIQFASNDLQSEMKFYRVG
Consider B1, for which the binding result in experiment [1] is on record as “binds”.

B2: Soybean mosaic virus Hc-Pro, full length, split-YFP fusion for BiFC (protein, UniProt P21231)
chain: B1 chain
With B2, in experiment [2], the binding entry is on record as “binds”.

For the origin of these results see PMC7472419.
